From patent US11540515B2, “Use of dialkoxybenzenes for control of honey bee mite varroa destructor” (Simon Fraser University, priority 2018, dated 2023)

Tested on: Varroa mites in honey bee colony
Experiment: Colony test with solid 3c{3,6} in organza bags
Type: in vivo, Varroa destructor
Protocol: Colony test. One colony of two supers was treated with solid 3c{3,6}, delivered in organza bags. The colony was otherwise healthy (apart from having Varroa mites), and the bee cluster reached over both boxes. Above the top box was placed a queen excluder and a top-feeding box. The following treatments were done: i) Day 1: 4×60 mg with bags placed above the cluster in the top box (below the queen excluder) only; ii) After 30 days: 4×60 mg with bags placed above the cluster in the top box (below the queen excluder) only; iii) After an additional 14 days, 4×100 mg with two bags placed on top of the lower box (i.e. between the two boxes) and two bags placed on top of the cluster on the top box (just below the queen excluder) iv) After an additional 7 days, 4×100 mg was added and the bags from the previous week were kept in. On the third treatment two Pasteur pipettes with Porapak (wedged between glass wool plugs in the pipette) were installed, one in the middle of the top cluster, the other on the edge of the cluster. These were removed. The colony was fitted with a screened bottom platform and a white Varroa counting drawer underneath the screen. Mites on the counting drawer board were counted every few days.
Porapak cartridges were extracted with hexane:ethyl acetate (4:1) with 40 ng/μL of 1,4-dimethoxybenzene as internal standard. […]

C=CCOc1ccc(OCCC)cc1 [3c{3,6}, 1-allyloxy-4-propoxybenzene]
amount of compound in Porapak (Porapak at the center of the cluster): 193 ng
amount of compound in Porapak (Porapak at the edge of the cluster): 148 ng
